Format in all cases: cell-based
For test [1], the target named is T1, RNA polymerase II (Mus musculus) (UniProt P08775+Q8CFI7+P97760+A0A3Q4L2S8+Q80UW8+P61219+P62488+Q923G2+P60898+O08740+Q63871+P62876). In words: Inhibition of RNA polymerase II in mouse B16-F1 migrating cells assessed as fold change in Acsl4-RNA stability at 0.1 mM measured by ChIP-seq analysis relative to control cells.
Test [2] addresses T1, RNA polymerase II (Mus musculus). In words: Inhibition of RNA polymerase II in mouse B16-F1 migrating cells assessed as fold change in Fbxo3-RNA stability at 0.1 mM measured by ChIP-seq analysis relative to control cells.
For test [3] the target is unchanged. Briefly: Inhibition of RNA polymerase II in mouse B16-F1 migrating cells assessed as fold change in Rif1-RNA stability at 0.1 mM measured by ChIP-seq analysis relative to control cells.
Test [4] shares this target. Briefly: Inhibition of RNA polymerase II in mouse B16-F1 migrating cells assessed as fold change in Zfp217-RNA stability at 0.1 mM measured by ChIP-seq analysis relative to control cells.
For test [5] the target is unchanged. In words: Inhibition of RNA polymerase II in mouse B16-F1 migrating cells assessed as fold change in Knl1-RNA stability at 0.1 mM measured by ChIP-seq analysis relative to control cells.
Test [6] shares this target. In words: Inhibition of RNA polymerase II in mouse B16-F1 migrating cells assessed as fold change in Aire-RNA stability at 0.1 mM measured by ChIP-seq analysis relative to control cells.
Test [7] has the same target. Briefly: Inhibition of RNA polymerase II in mouse B16-F1 migrating cells assessed as fold change in Zdhhc2-RNA stability at 0.1 mM measured by ChIP-seq analysis relative to control cells.
For test [8] the target is unchanged. In words: Inhibition of RNA polymerase II in mouse B16-F1 migrating cells assessed as fold change in Rps5-RNA stability at 0.1 mM measured by ChIP-seq analysis relative to control cells.
For test [9] the target is unchanged. Briefly: Inhibition of RNA polymerase II in mouse B16-F1 migrating cells assessed as fold change in Dbf4-RNA stability at 0.1 mM measured by ChIP-seq analysis relative to control cells.
Test [10] shares this target. In words: Inhibition of RNA polymerase II in mouse B16-F1 migrating cells assessed as fold change in Lin7c-RNA stability at 0.1 mM measured by ChIP-seq analysis relative to control cells.
The target is the same in test [11]. In words: Inhibition of RNA polymerase II in mouse B16-F1 migrating cells assessed as fold change in Uap1l1-RNA stability at 0.1 mM measured by ChIP-seq analysis relative to control cells.
The target is the same in test [12]. In words: Inhibition of RNA polymerase II in mouse B16-F1 migrating cells assessed as fold change in Dgcr6-RNA stability at 0.1 mM measured by ChIP-seq analysis relative to control cells.
Test [13] has the same target. Briefly: Inhibition of RNA polymerase II in mouse B16-F1 migrating cells assessed as fold change in Eif1a-RNA stability at 0.1 mM measured by ChIP-seq analysis relative to control cells.
For test [14] the target is unchanged. Briefly: Inhibition of RNA polymerase II in mouse B16-F1 migrating cells assessed as fold change in Rsrc2-RNA stability at 0.1 mM measured by ChIP-seq analysis relative to control cells.
Test [15] shares this target. Briefly: Inhibition of RNA polymerase II in mouse B16-F1 migrating cells assessed as fold change in Togaram1-RNA stability at 0.1 mM measured by ChIP-seq analysis relative to control cells.
Test [16] deals with Histone-lysine N-methyltransferase EZH2 (Mus musculus) (UniProt Q61188). Briefly: Inhibition of EZH2 in mouse B16-F1 migrating cells assessed as fold change in H3K27me3-buffered regulated Ccar1-mRNA expression at 3 uM measured by ChIP-seq analysis relative to control cells.
Test [17] has the same target. In words: Inhibition of EZH2 in mouse B16-F1 migrating cells assessed as fold change in H3K27me3-buffered regulated Vgll3-mRNA expression at 3 uM measured by ChIP-seq analysis relative to control cells.
For test [18] the target is unchanged. Briefly: Inhibition of EZH2 in mouse B16-F1 migrating cells assessed as fold change in H3K27me3-buffered regulated Ehd1-mRNA expression at 3 uM measured by ChIP-seq analysis relative to control cells.
The target is the same in test [19]. Briefly: Inhibition of EZH2 in mouse B16-F1 migrating cells assessed as fold change in H3K27me3-buffered regulated Atxn7l2-mRNA expression at 3 uM measured by ChIP-seq analysis relative to control cells.
Test [20] shares this target. In words: Inhibition of EZH2 in mouse B16-F1 migrating cells assessed as fold change in H3K27me3-buffered regulated Zkscan5-mRNA expression at 3 uM measured by ChIP-seq analysis relative to control cells.
Test [21] shares this target. In words: Inhibition of EZH2 in mouse B16-F1 migrating cells assessed as fold change in H3K27me3-dependent regulated Zfp382-mRNA expression at 3 uM measured by ChIP-seq analysis relative to control cells.
For test [22] the target is unchanged. Briefly: Inhibition of EZH2 in mouse B16-F1 migrating cells assessed as fold change in H3K27me3-buffered regulated Coro2b-mRNA expression at 3 uM measured by ChIP-seq analysis relative to control cells.
Test [23] has the same target. Briefly: Inhibition of EZH2 in mouse B16-F1 migrating cells assessed as fold change in H3K27me3-buffered regulated Arhgef17-mRNA expression at 3 uM measured by ChIP-seq analysis relative to control cells.
Test [24] has the same target. Briefly: Inhibition of EZH2 in mouse B16-F1 migrating cells assessed as fold change in H3K27me3-buffered regulated Cenpc1-mRNA expression at 3 uM measured by ChIP-seq analysis relative to control cells.
For test [25] the target is unchanged. In words: Inhibition of EZH2 in mouse B16-F1 migrating cells assessed as fold change in H3K27me3-independent regulated Emp1-mRNA expression at 3 uM measured by ChIP-seq analysis relative to control cells.
For test [26] the target is unchanged. Briefly: Inhibition of EZH2 in mouse B16-F1 migrating cells assessed as fold change in H3K27me3-buffered regulated Phip-mRNA expression at 3 uM measured by ChIP-seq analysis relative to control cells.
The target is the same in test [27]. In words: Inhibition of EZH2 in mouse B16-F1 migrating cells assessed as fold change in H3K27me3-buffered regulated Sntb2-mRNA expression at 3 uM measured by ChIP-seq analysis relative to control cells.
For test [28] the target is unchanged. In words: Inhibition of EZH2 in mouse B16-F1 migrating cells assessed as fold change in H3K27me3-buffered regulated Irs1-mRNA expression at 3 uM measured by ChIP-seq analysis relative to control cells.
For test [29] the target is unchanged. In words: Inhibition of EZH2 in mouse B16-F1 migrating cells assessed as fold change in H3K27me3-buffered regulated Adamts4-mRNA expression at 3 uM measured by ChIP-seq analysis relative to control cells.
Test [30] shares this target. Briefly: Inhibition of EZH2 in mouse B16-F1 migrating cells assessed as fold change in H3K27me3-buffered regulated Zfp638-mRNA expression at 3 uM measured by ChIP-seq analysis relative to control cells.

Protein sequences, listed by entry. Tags and fused reporters are not part of them.
UniProt Q61188, whole entry: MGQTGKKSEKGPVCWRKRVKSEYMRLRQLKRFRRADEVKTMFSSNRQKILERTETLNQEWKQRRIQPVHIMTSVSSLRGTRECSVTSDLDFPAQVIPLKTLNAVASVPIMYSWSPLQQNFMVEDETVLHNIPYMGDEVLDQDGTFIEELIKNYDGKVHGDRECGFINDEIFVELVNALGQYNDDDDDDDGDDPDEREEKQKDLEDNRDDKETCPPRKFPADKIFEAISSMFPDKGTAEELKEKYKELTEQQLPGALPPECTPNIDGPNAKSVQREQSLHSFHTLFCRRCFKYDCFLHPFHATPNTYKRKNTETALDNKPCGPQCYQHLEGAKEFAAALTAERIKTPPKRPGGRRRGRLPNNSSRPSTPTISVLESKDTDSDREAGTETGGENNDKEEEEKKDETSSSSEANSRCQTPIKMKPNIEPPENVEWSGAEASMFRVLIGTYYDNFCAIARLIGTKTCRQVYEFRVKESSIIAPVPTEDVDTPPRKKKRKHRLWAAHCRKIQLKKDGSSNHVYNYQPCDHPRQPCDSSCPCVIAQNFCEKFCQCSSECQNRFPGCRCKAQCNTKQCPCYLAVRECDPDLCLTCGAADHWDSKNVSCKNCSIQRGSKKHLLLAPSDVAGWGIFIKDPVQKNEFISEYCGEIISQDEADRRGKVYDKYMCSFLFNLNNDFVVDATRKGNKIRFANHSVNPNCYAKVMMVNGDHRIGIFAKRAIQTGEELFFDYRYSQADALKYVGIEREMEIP

From ChEMBL document CHEMBL5674883, “The Heterochromatin Landscape in Migrating Cells and the Importance of H3K27me3 for Associated Transcriptome Alterations” (Cells, 2018) come the findings set out here.

The source gives many values for each of these; only a part stands here.

Regarding `OC[C@H]1O[C@@H](n2cnc3cc(Cl)c(Cl)cc32)[C@H](O)[C@@H]1O`, the log2FC in test [1] was -0.51; in test [2] it was -0.46; in [3] it was -1.01; in test [4], -0.68; in test [5], -0.8; in test [6] it was 1.35. In addition, the log2FC in test [7] is -0.49; in test [8] it was 0.45; in test [9], -0.46; in test [10], -0.62; in test [11], 0.4; in test [12], 0.54. Further, the log2FC in test [13] was -0.44; in [14], -0.95; in test [15] it was -0.69.
For the compound `CCCc1cc(C)[nH]c(=O)c1CNC(=O)c1cc(-c2ccnc(N3CCN(C)CC3)c2)cc2c1cnn2C(C)C`, the log2FC in test [16] is -0.39; in test [17], -0.52; in test [18] it was 0.4; in [19], -0.41; in [20] it was 0.41; in [21], -0.35. The log2FC is 0.48 in [22]; -0.49 in [23]; -0.43 in test [24]; 0.69 in test [25]; -0.64 in test [26]; -0.52 in test [27]. Moreover, the log2FC in [28] was -0.63; in test [29], -0.5; in [30], -0.42.
